Drawing on PubChem BioAssay AID493014 (National Center for Advancing Translational Sciences (NCATS), 2011), this text covers AC50 for 18 compounds.

Molecules are shown by their SMILES. The list shows a part of the results. Shown are side measurements of this screen, not its main read-out; they come without a call. Most of these compounds were active or inconclusive in the main read-out, so they are no random draw. The note in brackets gives the kind of curve behind each potency; many fits are weak.

The test in a line: qHTS Assay to Find Inhibitors of Chronic Active B-Cell Receptor Signaling. The settings on record: ABC-DLBCL IkBa-CBG/CBR reporter, luminescence ratio (green luciferase fused to IkBa over red control in TMD8 lymphoma cells), 4 h; measured here: CBR red luminescence, cell number. The procedure, abridged:
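Cell line TMD8 (human ABC DLBCL), stably expressing tet-inducible CBG68-IkBa fusion and CBR; IMDM/0.5% FBS; cpd up to 46 uM; dox induction, 4 h, 37C/5% CO2; dual luminescence; green/red ratio; MG132 control.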
In general terms: Quantitative high-throughput screening tests each substance at several concentrations.
Take `Cc1ccc(C)c(S(=O)(=O)N2CCN(C(=O)c3cccn3C)CC2)c1`: the AC50 (in general, the midpoint of the concentration-response curve, whichever way the signal moves) is 3.26 µM [falling, single point]. The same measure for `CCc1c(C)nc2nc(SCc3ccccc3)[nH]n2c1=O`: 5.01 µM [falling, full curve, poor fit]; for `CC(=O)c1cc(-c2ccccc2)n(CCC(=O)Nc2ccc(C(C)C)cc2)c1C`: 17.8 µM [falling, single point]; for `O=C(Cc1csc(Nc2nc(=S)[nH]c3ccccc23)n1)N1CCN(c2cccc(Cl)c2)CC1`: 5.01 µM [rising, full curve, poor fit]. Consider `CC1=N/C(=C\c2ccc([N+](=O)[O-])cc2)C(=O)N1c1ccc(Br)c(C)c1`, for which the AC50 was 5.01 µM [rising, single point]. As to `C=CCN1C(=O)S/C(=C\c2ccc(N3CCOCC3)cc2C)C1=O`, the AC50 is 2.59 µM [rising, full curve].

On to `CCCCC(=O)NC(c1ccco1)c1c(O)ccc2ccccc12` (stereo not drawn), for which the AC50 was 17.8 µM [falling, partial curve, poor fit]. As for `CCCCCCCC(=O)N/N=C/c1cccnc1`, the AC50 is 0.731 µM [falling, partial curve, poor fit]. As to `O=C(COC(=O)CCOc1ccccc1)Nc1cc(S(=O)(=O)N2CCCCC2)ccc1Cl`, the concentration at half-maximal activity (AC50) is 20.6 µM [falling, single point]. Take `O=C(CSc1cccc2cccnc12)N/N=C/c1cccnc1`: the AC50 is 35.5 µM [falling, single point]. In the case of `Cc1oc(C(=O)O)cc1COc1ccc2c3c(c(=O)oc2c1)CCC3`, the AC50 was 9.2 µM [falling, partial curve, poor fit]. On to `COc1ccc(NC(=O)c2cccc(S(=O)(=O)Nc3ccc(Br)cc3)c2)cn1`, for which the AC50 was 3.66 µM [falling, full curve].

`CC(=O)c1cc2c(cc1N/C(=N/S(=O)(=O)c1ccccc1)c1ccc(Cl)cc1)OCO2`: the AC50 was 4.11 µM [rising, full curve, poor fit]. On to `O=C(Nc1cccc(-c2nc3ncccc3o2)c1)c1cc2ccccc2o1`, for which the AC50 was 18.4 µM [falling, single point]. `O=c1cc(-c2ccccc2)nc2nc(-c3ccco3)[nH]n12`: the AC50 is 2.06 µM [falling, full curve]. As for `Cc1ccccc1OCCC(=O)OCC(=O)N1c2ccccc2NC(=O)C1(C)C`, the figure is 29.1 µM [falling, single point]. Regarding `O=C(NCCc1c[nH]c2ccccc12)OCCCCOC(=O)NCCc1c[nH]c2ccccc12`, the AC50 was 18.4 µM [falling, single point].

`CCOc1ccccc1NC(=O)COC(=O)C1CC(=O)N(c2c(C)cccc2C)C1` (stereo not drawn): the AC50 is 11.2 µM [falling, partial curve, poor fit].
